{
  "source": "patent US7205150B2",
  "about": "“Transgenic plants over-expressing plant ADP-glucose pyrophosphatase” (Universidad Publica de Navarra, priority 2000, dated 2007)",
  "molecules": {"B1": {"name": "Soluble AGPPase: soluble isoform of AGPPase purified from barley leaves, a germin-like glycoprotein (protein)", "chain": "MANAMLLPVLVSFLVLPFSAMALTQDFCVADLSCSDTPAGYPCKTGVGAGDFYYHGLAAAGNTSNLIKAAVTPAFVGQFPGVNGLGISAARLDIAVGGVVPMHTHPAASELLFVTEGTILAGFISSSSNTVYTKTLYKGDIMVFPQGLLHYQYNGGSSSAVALVAFSGPNPGLQITDYALFANNLPSAVVEKVTFLDDAQVKKLKSVLGGSG", "modifications": "Hordeum vulgare cv. Scarlett; Soluble AGPPase deduced from cDNA", "notes": "soluble isoform of AGPPase purified from barley leaves, a germin-like glycoprotein"}},
  "tested_on": "AGPPase (soluble and particulate isoforms)",
  "assay": "AGPPase enzymatic assay (two-step spectrophotometric determination of G1P produced from ADPG)",
  "type": "biochemical, barley (Hordeum vulgare), tomato (Lycopersicon sculentum)",
  "conditions": "ADPG hydrolysis",
  "data": [
    {"molecule": "B1", "values": [
      {"measurement": "Reaction Kqq′", "result": 110}
    ]}
  ]
}
